In US11124507B2, “1H-pyrrolopyridine compound, N-oxide thereof or salt thereof, agricultural and horticultural insecticide comprising the compound, and method for using the insecticide” (Nihon Nohyaku Co., Ltd., priority 2016, dated 2021):
Some results were stated once for a whole list of compounds, not compound by compound.

Columns and labels:
Type in all cases: in vivo
Laodelphax striatellus = assay: Insecticidal test on Laodelphax striatellus (rice seedling dip); conditions: 500 ppm, rice seedlings dipped 30 seconds, ten 3rd-instar larvae, 8 days after inoculation
Description: Insecticidal Test on Laodelphax striatellus
The condensed heterocyclic compounds represented by the general formula (1) of the present invention or salts thereof were separately dispersed in water and diluted to 500 ppm. Rice plant seedlings (variety: Nihonbare) were dipped in the agrochemical dispersions for 30 seconds. After air-dried, each seedling was put into a separate glass test tube and inoculated with ten 3rd-instar larvae of Laodelphax striatellus, and then the glass test tubes were capped with cotton plugs. At 8 days after the inoculation, the numbers of surviving larvae and dead larvae were counted, the corrected mortality rate was calculated according to the formula shown below, and the insecticidal efficacy was evaluated according to the criteria shown below. Corrected mortality rate (%)=100×(Survival rate in a non-treatment plot−Survival rate in a treatment plot)/Survival rate in a non-treatment plot [Math. 2] Corrected Mortality Rate A: the corrected mortality rate is 100%.

Myzus persicae = assay: Test for control efficacy on Myzus persicae (foliar application, Chinese cabbage); conditions: 500 ppm, foliar application to potted Chinese cabbage plants, 6 days after application
Description: Test for control efficacy on Myzus persicae Chinese cabbage plants were planted in plastic pots (diameter: 8 cm, height: 8 cm), Green peach aphids (Myzus persicae) were propagated on the plants, and the number of surviving Green peach aphids in each pot was counted. The condensed heterocyclic compounds represented by the general formula (1) of the present invention or salts thereof were separately dispersed in water and diluted to 500 ppm. The agrochemical dispersions were applied to the foliage of the potted Chinese cabbage plants. After the plants were air-dried, the pots were kept in a greenhouse. At 6 days after the foliar application, the number of surviving Green peach aphids on the Chinese cabbage plant in each pot was counted, the control rate was calculated according to the formula shown below, and the control efficacy was evaluated according to the criteria shown below. Control rate=100−{(T×Ca)/(Ta×C)}×100 [Math. 1] Ta: the number of survivors before the foliar application in a treatment plot T: the number of survivors after the foliar application in a treatment plot Ca: the number of survivors before the foliar application in a non-treatment plot C: the number of survivors after the foliar application in a non-treatment plot Criteria A: the control rate is 100%. B: the control rate is 90 to 99%. C: the control rate is 80 to 89%. D: the control rate is 50 to 79%.

Plutella xylostella = assay: Insecticidal test on Plutella xylostella (dip of Chinese cabbage seedlings with laid eggs); conditions: 500 ppm, seedlings with laid eggs dipped about 30 seconds, 25° C., 6 days after dip treatment, criteria of Test Example 2
Method: Insecticidal Test on Plutella xylostella
Adults of Plutella xylostella were released onto Chinese cabbage seedlings and allowed to lay eggs thereon. […] After air-dried, the seedlings were kept in a thermostatic chamber at 25° C. […] This test was conducted in triplicate using 10 adults of Plutella xylostella per plot. Corrected mortality rate (%)=100×(Number of hatched larvae in a non-treatment plot−Number of hatched larvae in a treatment plot)/Number of hatched larvae in a non-treatment plot [Math. 3]

CCS(=O)(=O)c1cc2ccc(C=NOCC(F)(F)F)cc2nc1-c1c(Cl)c2ncc(C(F)(F)F)cc2n1C(=O)OC(C)(C)C [Compound 2-76]
insecticidal efficacy (corrected mortality rate), activity level (Laodelphax striatellus): A (the corrected mortality rate is 100%.) | control efficacy (control rate), activity level (Myzus persicae): A (the control rate is 100%.) | insecticidal efficacy (corrected mortality rate), activity level (Plutella xylostella): A (the corrected mortality rate is 100%.)

CCS(=O)(=O)c1cc2ccc(NC(C)=O)cc2nc1-c1c(Cl)c2ncc(C(F)(F)F)cc2n1C(=O)OC(C)(C)C [Compound 2-90]
insecticidal efficacy (corrected mortality rate), activity level (Laodelphax striatellus): A (the corrected mortality rate is 100%.) | control efficacy (control rate), activity level (Myzus persicae): A (the control rate is 100%.) | insecticidal efficacy (corrected mortality rate), activity level (Plutella xylostella): A (the corrected mortality rate is 100%.)

CCS(=O)(=O)c1cc2ccc(Br)cc2nc1-c1c(Cl)c2ncc(C(F)(F)F)cc2n1CC(F)F [Compound 2-104]
insecticidal efficacy (corrected mortality rate), activity level (Laodelphax striatellus): A (the corrected mortality rate is 100%.) | control efficacy (control rate), activity level (Myzus persicae): A (the control rate is 100%.) | insecticidal efficacy (corrected mortality rate), activity level (Plutella xylostella): A (the corrected mortality rate is 100%.)

CCS(=O)(=O)c1cc2ccc(Br)cc2nc1-c1c(Cl)c2ncc(C(F)(F)F)cc2n1CC1CC1 [Compound 2-105]
insecticidal efficacy (corrected mortality rate), activity level (Laodelphax striatellus): A (the corrected mortality rate is 100%.) | control efficacy (control rate), activity level (Myzus persicae): A (the control rate is 100%.) | insecticidal efficacy (corrected mortality rate), activity level (Plutella xylostella): A (the corrected mortality rate is 100%.)

CCS(=O)(=O)c1cc2cc(Cl)ccc2nc1-c1cc2ncc(C(F)(F)F)cc2n1C(=O)OC(C)(C)C [Compound 3-1]
insecticidal efficacy (corrected mortality rate), activity level (Laodelphax striatellus): A (the corrected mortality rate is 100%.) | control efficacy (control rate), activity level (Myzus persicae): A (the control rate is 100%.) | insecticidal efficacy (corrected mortality rate), activity level (Plutella xylostella): A (the corrected mortality rate is 100%.)

CCS(=O)(=O)c1cc2cc(Cl)ccc2nc1-c1[nH]c2cc(C(F)(F)F)cnc2c1Cl [Compound 3-2]
insecticidal efficacy (corrected mortality rate), activity level (Laodelphax striatellus): A (the corrected mortality rate is 100%.) | control efficacy (control rate), activity level (Myzus persicae): A (the control rate is 100%.) | insecticidal efficacy (corrected mortality rate), activity level (Plutella xylostella): A (the corrected mortality rate is 100%.)

CC[S+]([O-])c1cc2cc(Cl)ccc2nc1-c1cc2c(cc(C(F)(F)F)c[n+]2[O-])[nH]1 (stereo not drawn) [Compound 4-1]
insecticidal efficacy (corrected mortality rate), activity level (Laodelphax striatellus): A (the corrected mortality rate is 100%.) | control efficacy (control rate), activity level (Myzus persicae): A (the control rate is 100%.) | insecticidal efficacy (corrected mortality rate), activity level (Plutella xylostella): A (the corrected mortality rate is 100%.)

CCS(=O)(=O)c1cc2cc(Cl)ccc2nc1-c1cc2c(cc(C(F)(F)F)c[n+]2[O-])[nH]1 [Compound 4-2]
insecticidal efficacy (corrected mortality rate), activity level (Laodelphax striatellus): A (the corrected mortality rate is 100%.) | control efficacy (control rate), activity level (Myzus persicae): A (the control rate is 100%.) | insecticidal efficacy (corrected mortality rate), activity level (Plutella xylostella): A (the corrected mortality rate is 100%.)

CCSc1cc2ccc(Br)cc2nc1-c1cc2c(cc(C(F)(F)F)c[n+]2[O-])[nH]1 [Compound 4-4]
insecticidal efficacy (corrected mortality rate), activity level (Laodelphax striatellus): A (the corrected mortality rate is 100%.) | control efficacy (control rate), activity level (Myzus persicae): A (the control rate is 100%.) | insecticidal efficacy (corrected mortality rate), activity level (Plutella xylostella): A (the corrected mortality rate is 100%.)

CCS(=O)(=O)c1cc2ccc(C(F)(F)F)cc2nc1-c1cc2c(cc(C(F)(F)F)c[n+]2[O-])[nH]1 [Compound 4-6]
insecticidal efficacy (corrected mortality rate), activity level (Laodelphax striatellus): A (the corrected mortality rate is 100%.) | control efficacy (control rate), activity level (Myzus persicae): A (the control rate is 100%.) | insecticidal efficacy (corrected mortality rate), activity level (Plutella xylostella): A (the corrected mortality rate is 100%.)

CCS(=O)(=O)c1cc2cc(C3CC3)ccc2nc1-c1cc2c(cc(C(F)(F)F)c[n+]2[O-])[nH]1 [Compound 4-7]
insecticidal efficacy (corrected mortality rate), activity level (Laodelphax striatellus): A (the corrected mortality rate is 100%.) | control efficacy (control rate), activity level (Myzus persicae): A (the control rate is 100%.) | insecticidal efficacy (corrected mortality rate), activity level (Plutella xylostella): A (the corrected mortality rate is 100%.)

CCSc1cc2cc(Br)ccc2nc1-c1cc2c(cc(C(F)(F)F)c[n+]2[O-])[nH]1 [Compound 4-8]
insecticidal efficacy (corrected mortality rate), activity level (Laodelphax striatellus): A (the corrected mortality rate is 100%.) | control efficacy (control rate), activity level (Myzus persicae): A (the control rate is 100%.) | insecticidal efficacy (corrected mortality rate), activity level (Plutella xylostella): A (the corrected mortality rate is 100%.)

CCS(=O)(=O)c1cc2cc(Br)ccc2nc1-c1cc2c(cc(C(F)(F)F)c[n+]2[O-])[nH]1 [Compound 4-9]
insecticidal efficacy (corrected mortality rate), activity level (Laodelphax striatellus): A (the corrected mortality rate is 100%.) | control efficacy (control rate), activity level (Myzus persicae): A (the control rate is 100%.) | insecticidal efficacy (corrected mortality rate), activity level (Plutella xylostella): A (the corrected mortality rate is 100%.)

CC[S+]([O-])c1cc2ccc(Br)cc2nc1-c1cc2c(cc(C(F)(F)F)c[n+]2[O-])[nH]1 (stereo not drawn) [Compound 4-10]
insecticidal efficacy (corrected mortality rate), activity level (Laodelphax striatellus): A (the corrected mortality rate is 100%.) | control efficacy (control rate), activity level (Myzus persicae): A (the control rate is 100%.) | insecticidal efficacy (corrected mortality rate), activity level (Plutella xylostella): A (the corrected mortality rate is 100%.)

CCS(=O)(=O)c1cc2cc(Cl)ccc2nc1-c1cc2ncc(C(F)(F)F)cc2[nH]1 [Compound 5-1]
insecticidal efficacy (corrected mortality rate), activity level (Laodelphax striatellus): A (the corrected mortality rate is 100%.) | control efficacy (control rate), activity level (Myzus persicae): A (the control rate is 100%.) | insecticidal efficacy (corrected mortality rate), activity level (Plutella xylostella): A (the corrected mortality rate is 100%.)
